Source: the supplement of paper PMC12823440, “Inhibitors supercharge kinase turnover through native proteolytic circuits” (Nature, 2025)
Counter-ions that a name gives are not always drawn. This is one part of the list. Hit calls seldom repeat between salt and free forms of one compound.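 Kinases, fused to nanoluciferase, were expressed in K562 cells; luminescence was measured every 4 h from 2 to 18 h as percent of control (DMSO = 100%, positive control = 0%). A time point is decreased if signal falls significantly (2 sigma). Hits were called by the authors by a rule that is not shown; the count of time points alone does not decide it.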

Sequences of proteins named here, by UniProt entry; tags and fusion partners are left off. A change or cut given only in a name is not applied to a line headed by its entry.
UniProt P36888, whole entry: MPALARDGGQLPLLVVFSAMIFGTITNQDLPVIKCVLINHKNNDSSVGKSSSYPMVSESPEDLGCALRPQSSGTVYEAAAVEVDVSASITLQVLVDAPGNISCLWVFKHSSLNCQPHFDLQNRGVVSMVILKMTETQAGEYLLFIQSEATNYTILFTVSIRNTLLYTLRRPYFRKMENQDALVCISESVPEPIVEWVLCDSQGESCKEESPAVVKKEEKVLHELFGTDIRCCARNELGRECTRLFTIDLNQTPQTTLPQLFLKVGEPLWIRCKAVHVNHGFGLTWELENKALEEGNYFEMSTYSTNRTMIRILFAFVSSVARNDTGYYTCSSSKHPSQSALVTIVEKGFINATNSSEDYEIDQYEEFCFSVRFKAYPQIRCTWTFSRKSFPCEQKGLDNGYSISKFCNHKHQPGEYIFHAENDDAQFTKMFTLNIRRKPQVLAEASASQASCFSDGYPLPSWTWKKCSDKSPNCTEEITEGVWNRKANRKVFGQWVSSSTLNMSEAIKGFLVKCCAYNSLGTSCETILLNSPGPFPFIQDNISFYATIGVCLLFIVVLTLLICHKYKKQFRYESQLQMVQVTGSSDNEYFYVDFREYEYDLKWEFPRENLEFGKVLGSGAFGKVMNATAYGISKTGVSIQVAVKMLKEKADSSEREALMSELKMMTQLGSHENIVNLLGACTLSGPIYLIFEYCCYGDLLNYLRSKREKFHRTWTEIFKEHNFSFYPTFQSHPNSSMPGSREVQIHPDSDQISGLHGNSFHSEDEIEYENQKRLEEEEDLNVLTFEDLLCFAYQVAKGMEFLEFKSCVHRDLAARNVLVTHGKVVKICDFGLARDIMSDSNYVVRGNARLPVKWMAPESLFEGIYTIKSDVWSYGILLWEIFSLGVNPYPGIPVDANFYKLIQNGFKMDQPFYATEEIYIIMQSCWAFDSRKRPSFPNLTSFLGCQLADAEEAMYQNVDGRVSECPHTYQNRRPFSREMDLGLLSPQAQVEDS
UniProt P06241, whole entry, looked up: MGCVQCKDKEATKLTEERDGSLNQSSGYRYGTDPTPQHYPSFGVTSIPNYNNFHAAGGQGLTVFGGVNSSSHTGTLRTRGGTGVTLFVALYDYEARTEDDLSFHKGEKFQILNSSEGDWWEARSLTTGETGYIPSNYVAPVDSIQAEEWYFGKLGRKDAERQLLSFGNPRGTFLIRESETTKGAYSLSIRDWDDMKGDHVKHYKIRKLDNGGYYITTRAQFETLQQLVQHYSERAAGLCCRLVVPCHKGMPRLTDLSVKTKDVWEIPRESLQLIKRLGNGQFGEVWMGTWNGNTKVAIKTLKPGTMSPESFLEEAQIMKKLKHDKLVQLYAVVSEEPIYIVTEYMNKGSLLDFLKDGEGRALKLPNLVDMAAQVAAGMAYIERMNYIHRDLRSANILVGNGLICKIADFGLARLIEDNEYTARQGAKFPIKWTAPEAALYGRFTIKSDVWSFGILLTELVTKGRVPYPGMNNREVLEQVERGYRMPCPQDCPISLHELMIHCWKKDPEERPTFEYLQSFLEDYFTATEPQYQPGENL
UniProt P49840: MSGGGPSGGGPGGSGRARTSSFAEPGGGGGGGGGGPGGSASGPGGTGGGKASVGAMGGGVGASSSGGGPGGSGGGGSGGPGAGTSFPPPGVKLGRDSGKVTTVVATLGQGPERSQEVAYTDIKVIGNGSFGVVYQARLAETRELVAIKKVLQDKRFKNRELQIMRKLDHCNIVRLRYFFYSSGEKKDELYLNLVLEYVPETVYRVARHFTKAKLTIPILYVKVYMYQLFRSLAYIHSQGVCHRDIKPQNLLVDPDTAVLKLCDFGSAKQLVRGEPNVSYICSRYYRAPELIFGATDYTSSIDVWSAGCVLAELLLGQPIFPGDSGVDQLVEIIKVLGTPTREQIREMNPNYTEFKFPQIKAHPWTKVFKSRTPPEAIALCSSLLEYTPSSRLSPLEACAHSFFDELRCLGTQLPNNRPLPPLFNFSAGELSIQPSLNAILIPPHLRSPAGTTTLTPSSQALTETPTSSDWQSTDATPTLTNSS
UniProt P14616: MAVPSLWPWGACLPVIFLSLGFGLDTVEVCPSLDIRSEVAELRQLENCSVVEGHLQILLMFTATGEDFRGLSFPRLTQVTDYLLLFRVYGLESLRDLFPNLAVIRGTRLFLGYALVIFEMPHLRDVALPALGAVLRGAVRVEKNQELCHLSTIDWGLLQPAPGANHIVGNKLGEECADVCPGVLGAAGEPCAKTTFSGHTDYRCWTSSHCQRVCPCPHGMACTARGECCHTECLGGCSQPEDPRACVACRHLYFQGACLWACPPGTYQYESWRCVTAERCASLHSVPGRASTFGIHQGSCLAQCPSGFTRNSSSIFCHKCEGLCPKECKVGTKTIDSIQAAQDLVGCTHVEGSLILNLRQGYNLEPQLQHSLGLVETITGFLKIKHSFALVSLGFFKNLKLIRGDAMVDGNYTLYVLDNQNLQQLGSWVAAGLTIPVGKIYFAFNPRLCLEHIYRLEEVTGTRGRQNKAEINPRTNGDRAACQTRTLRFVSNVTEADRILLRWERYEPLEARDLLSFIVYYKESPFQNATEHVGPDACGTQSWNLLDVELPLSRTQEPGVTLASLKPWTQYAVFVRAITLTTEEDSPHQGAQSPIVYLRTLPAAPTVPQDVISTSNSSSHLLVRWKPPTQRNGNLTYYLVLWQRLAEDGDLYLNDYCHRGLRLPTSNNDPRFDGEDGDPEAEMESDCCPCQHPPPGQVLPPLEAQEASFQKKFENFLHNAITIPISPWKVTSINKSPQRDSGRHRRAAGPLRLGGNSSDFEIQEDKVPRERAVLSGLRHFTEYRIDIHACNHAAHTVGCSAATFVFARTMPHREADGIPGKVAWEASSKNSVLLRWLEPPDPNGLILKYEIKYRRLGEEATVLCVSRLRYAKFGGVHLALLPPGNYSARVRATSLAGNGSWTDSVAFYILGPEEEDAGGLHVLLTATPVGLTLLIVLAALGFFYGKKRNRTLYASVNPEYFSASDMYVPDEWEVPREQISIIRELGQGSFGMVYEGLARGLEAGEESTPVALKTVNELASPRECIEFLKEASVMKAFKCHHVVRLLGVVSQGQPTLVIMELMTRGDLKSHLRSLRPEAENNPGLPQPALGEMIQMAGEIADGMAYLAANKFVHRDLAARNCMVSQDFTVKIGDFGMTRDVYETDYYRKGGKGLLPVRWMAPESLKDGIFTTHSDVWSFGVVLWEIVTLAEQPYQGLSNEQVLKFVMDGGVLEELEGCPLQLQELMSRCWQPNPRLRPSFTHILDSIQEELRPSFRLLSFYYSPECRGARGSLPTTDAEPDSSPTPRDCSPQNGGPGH
UniProt Q9Y616: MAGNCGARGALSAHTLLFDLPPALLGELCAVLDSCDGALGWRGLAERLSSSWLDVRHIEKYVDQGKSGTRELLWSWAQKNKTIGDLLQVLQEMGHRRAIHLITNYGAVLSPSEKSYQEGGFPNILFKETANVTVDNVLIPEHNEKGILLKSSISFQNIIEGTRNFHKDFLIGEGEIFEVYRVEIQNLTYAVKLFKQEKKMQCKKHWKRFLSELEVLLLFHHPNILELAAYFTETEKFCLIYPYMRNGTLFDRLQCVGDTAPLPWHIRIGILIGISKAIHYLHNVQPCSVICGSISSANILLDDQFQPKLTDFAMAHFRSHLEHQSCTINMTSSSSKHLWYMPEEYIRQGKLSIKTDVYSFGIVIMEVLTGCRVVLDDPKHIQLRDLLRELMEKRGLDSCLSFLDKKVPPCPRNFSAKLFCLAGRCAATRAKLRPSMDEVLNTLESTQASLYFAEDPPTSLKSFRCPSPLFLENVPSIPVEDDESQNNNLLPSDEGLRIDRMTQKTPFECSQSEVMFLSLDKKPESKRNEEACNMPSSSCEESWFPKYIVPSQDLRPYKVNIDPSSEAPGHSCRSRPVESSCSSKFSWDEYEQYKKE
UniProt P23458: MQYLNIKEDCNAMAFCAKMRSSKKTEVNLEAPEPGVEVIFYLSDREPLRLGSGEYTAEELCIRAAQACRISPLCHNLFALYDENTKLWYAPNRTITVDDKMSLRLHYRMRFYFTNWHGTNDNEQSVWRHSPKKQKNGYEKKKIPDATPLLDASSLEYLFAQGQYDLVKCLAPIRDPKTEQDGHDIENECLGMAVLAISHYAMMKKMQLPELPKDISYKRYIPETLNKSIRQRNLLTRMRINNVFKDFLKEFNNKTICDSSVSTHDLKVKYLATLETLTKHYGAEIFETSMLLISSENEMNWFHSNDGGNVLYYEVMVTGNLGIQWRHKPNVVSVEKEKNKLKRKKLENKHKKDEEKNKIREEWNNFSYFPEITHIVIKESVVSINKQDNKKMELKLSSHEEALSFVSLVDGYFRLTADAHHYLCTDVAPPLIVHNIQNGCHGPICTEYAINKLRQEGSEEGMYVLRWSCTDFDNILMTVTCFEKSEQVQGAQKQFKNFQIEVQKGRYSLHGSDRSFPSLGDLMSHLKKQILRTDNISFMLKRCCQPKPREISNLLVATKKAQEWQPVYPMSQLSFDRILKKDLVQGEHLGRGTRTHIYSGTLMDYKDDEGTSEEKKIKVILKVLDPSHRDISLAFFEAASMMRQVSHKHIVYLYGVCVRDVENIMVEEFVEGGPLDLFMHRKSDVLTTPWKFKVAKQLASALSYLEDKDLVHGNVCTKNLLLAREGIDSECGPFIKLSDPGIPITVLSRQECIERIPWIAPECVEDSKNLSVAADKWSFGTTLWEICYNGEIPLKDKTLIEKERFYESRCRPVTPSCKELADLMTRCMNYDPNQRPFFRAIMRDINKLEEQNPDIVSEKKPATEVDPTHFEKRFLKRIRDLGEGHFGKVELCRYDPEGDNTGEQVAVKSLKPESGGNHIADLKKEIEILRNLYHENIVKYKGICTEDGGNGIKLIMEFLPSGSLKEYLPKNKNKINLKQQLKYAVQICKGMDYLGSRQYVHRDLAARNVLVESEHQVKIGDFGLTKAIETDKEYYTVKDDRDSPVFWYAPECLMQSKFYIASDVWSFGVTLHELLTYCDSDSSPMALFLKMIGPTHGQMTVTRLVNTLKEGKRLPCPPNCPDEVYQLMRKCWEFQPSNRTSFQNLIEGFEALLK
UniProt P06239: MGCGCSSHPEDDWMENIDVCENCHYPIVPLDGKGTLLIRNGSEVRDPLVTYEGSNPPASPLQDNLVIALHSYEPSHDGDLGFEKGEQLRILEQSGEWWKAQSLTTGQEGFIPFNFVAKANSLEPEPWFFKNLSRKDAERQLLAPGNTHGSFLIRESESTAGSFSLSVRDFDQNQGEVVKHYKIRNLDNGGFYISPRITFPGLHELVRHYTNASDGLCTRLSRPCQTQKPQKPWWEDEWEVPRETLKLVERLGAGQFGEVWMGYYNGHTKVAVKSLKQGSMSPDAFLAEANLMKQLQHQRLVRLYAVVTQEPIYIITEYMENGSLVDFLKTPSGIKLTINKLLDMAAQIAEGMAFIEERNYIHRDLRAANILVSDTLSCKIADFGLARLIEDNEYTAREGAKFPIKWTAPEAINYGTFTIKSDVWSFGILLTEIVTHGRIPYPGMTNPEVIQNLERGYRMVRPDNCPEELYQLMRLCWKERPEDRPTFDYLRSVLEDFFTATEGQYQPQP
UniProt P53667: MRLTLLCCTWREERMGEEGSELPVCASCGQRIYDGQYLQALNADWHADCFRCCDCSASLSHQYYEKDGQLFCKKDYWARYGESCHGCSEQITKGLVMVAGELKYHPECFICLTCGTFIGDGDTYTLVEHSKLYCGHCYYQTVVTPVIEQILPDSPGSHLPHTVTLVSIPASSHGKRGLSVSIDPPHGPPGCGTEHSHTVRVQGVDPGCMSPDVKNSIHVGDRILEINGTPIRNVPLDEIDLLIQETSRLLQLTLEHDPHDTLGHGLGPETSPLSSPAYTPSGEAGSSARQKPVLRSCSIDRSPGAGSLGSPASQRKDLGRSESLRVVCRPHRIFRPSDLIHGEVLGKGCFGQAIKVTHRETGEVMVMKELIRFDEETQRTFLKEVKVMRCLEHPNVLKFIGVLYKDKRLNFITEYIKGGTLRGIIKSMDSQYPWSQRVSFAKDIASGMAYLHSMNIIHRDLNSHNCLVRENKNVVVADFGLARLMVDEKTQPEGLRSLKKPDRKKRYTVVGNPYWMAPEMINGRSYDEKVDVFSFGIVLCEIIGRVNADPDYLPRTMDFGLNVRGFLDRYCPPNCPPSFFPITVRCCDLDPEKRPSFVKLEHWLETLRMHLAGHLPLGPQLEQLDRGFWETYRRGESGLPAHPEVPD

Assays:
Test in all cases: number of time points (of 5) at which kinase-Nluc abundance scored as decreased, DMSO-normalised (count); higher = more persistent destabilization
Conditions in all cases: K562; 2-18 h
FLT3 = FLT3 (UniProt P36888)
FYN = FYN (UniProt P06241)
GSK3A = GSK3A (UniProt P49840)
HER2 = HER2 (UniProt P04626)
INSRR = INSRR (UniProt P14616)
IRAK3 = IRAK3 (UniProt Q9Y616)
JAK1 = JAK1 (UniProt P23458)
LCK = LCK (UniProt P06239)
LIMK1 = LIMK1 (UniProt P53667)
LIMK2 = LIMK2 (UniProt P53671)

| Compound | number of time points (FLT3) | number of time points (FYN) | number of time points (GSK3A) | number of time points (HER2) | number of time points (INSRR) | number of time points (IRAK3) | number of time points (JAK1) | number of time points (LCK) | number of time points (LIMK1) | number of time points (LIMK2) |
| --- | --- | --- | --- | --- | --- | --- | --- | --- | --- | --- |
| Cc1cc2cc(Oc3ccnc(Nc4cccc(CS(=O)(=O)NCCN(C)C)c4)n3)ccc2[nH]1 [Sulfatinib] (10 µM) | 0 | 0 | 0 | 0 | 2 | 3 | 0 | 0 | 3 | 0 |
| NC(=O)c1ccc(-c2cnn3ccc(NCc4cccnc4)nc23)cc1 (2.5 µM) | 0 | 0 | 0 | 0 | 0 | 0 | 0 | 0 | 0 | 0 |
| C[C@@H]1C[C@H]2O[C@@]3(O[C@@H]2C(C)(C)O)[C@H](O)[C@@]2(C)[C@@H]4CC[C@H]5C(C)(C)[C@@H](O[C@@H]6OC[C@H](O)[C@H](O)[C@H]6O)CC[C@@]56C[C@@]46CC[C@]2(C)[C@@H]13 [Cimiracemoside C] (10 µM) | 0 | 0 | 0 | 0 | 0 | 0 | 0 | 0 | 0 | 0 |
| CC(=O)Nc1nc2ccc(-c3cnc(C)c(NC(=O)OC4CCCCC4)c3)cc2s1 (10 µM) | 0 | 0 | 0 | 0 | 0 | 0 | 0 | 0 | 0 | 0 |
| CN(C)C(=O)c1ccc(S(=O)(=O)c2ccc(NC(=O)[C@@](C)(O)C(F)(F)F)c(Cl)c2)cc1 (10 µM) | 0 | 0 | 0 | 0 | 0 | 0 | 0 | 0 | 0 | 0 |
| O=Nc1c(-c2c(O)[nH]c3ccccc23)[nH]c2ccccc12 [Indirubin-3'-monoxime] (2.5 µM) | 0 | 0 | 0 | 0 | 0 | 1 | 0 | 0 | 0 | 0 |
| COc1cc(-c2cc(-c3cc(OC)c(OC)c(OC)c3)cc(C(F)P(=O)(OCOC(=O)C(C)(C)C)OCOC(=O)C(C)(C)C)c2)cc(OC)c1OC (stereo not given) [Stafia-1-dipivaloyloxymethyl ester] (2.5 µM) | 0 | 0 | 0 | 0 | 0 | 0 | 0 | 0 | 0 | 0 |
| Cn1cc(-c2ccc3nnc(C(F)(F)c4ccc5ncccc5c4)n3n2)cn1 (10 µM) | 0 | 0 | 0 | 0 | 0 | 0 | 0 | 0 | 0 | 0 |
| CCOC(=O)c1c2c3c(cccc3[nH]c1=O)C(=O)c1ccccc1-2 (10 µM) | 0 | 0 | 0 | 0 | 0 | 0 | 0 | 0 | 0 | 0 |
| C[C@H]1Cc2ccccc2N1C(=O)Cc1nc(N2CCOCC2)cc(=O)[nH]1 (2.5 µM) | 0 | 0 | 0 | 0 | 0 | 0 | 0 | 0 | 0 | 0 |
| Fc1c(Br)cccc1Nc1ncnc2cc3c(cc12)OCCO3 (2.5 µM) | 0 | 0 | 0 | 1 | 1 | 0 | 0 | 0 | 0 | 0 |
| Nc1n[nH]c2cc(-c3ccc(=O)n(Cc4cccc(Cl)c4)c3)ccc12 (10 µM) | 0 | 0 | 0 | 0 | 0 | 0 | 0 | 0 | 0 | 0 |
| Nc1cc(C(F)(F)F)c(-c2nc(N3CCOCC3)nc(N3CCOCC3)n2)cn1 [Bimiralisib] (10 µM) | 2 | 3 | 0 | 2 | 0 | 2 | 0 | 0 | 4 | 1 |
| COc1cc(N2CCC(N(C)C)CC2)ccc1Nc1ncc(Cl)c(Nc2ccccc2P(C)(C)=O)n1 (2.5 µM) | 0 | 1 | 0 | 0 | 3 | 2 | 0 | 0 | 0 | 0 |
| CNC(=O)c1ccc(-c2cnc3cnc(-c4ccccc4)cn23)cc1 (10 µM) | 0 | 0 | 0 | 0 | 0 | 0 | 0 | 0 | 0 | 0 |
| COc1nc(-c2cccc3c2OCCO3)ccc1Nc1ccc(CN(C)C)cc1 [RAS inhibitor Abd-7] (10 µM) | 0 | 0 | 0 | 0 | 0 | 0 | 0 | 0 | 0 | 0 |
| CCOc1nc(Nc2ccc(C(=O)N3CCOCC3)cc2OC)nc2[nH]ccc12 [LRRK2 inhibitor 1] (2.5 µM) | 0 | 0 | 0 | 0 | 0 | 0 | 0 | 0 | 0 | 0 |

| Compound | number of time points (FLT3) | number of time points (FYN) | number of time points (GSK3A) | number of time points (HER2) | number of time points (INSRR) | number of time points (IRAK3) | number of time points (JAK1) | number of time points (LCK) | number of time points (LIMK1) | number of time points (LIMK2) |
| --- | --- | --- | --- | --- | --- | --- | --- | --- | --- | --- |
| CSc1ccc(CN2CCCC(Nc3ccc4[nH]ncc4c3)C2)cc1 (stereo not given) [Rho-Kinase-IN-1] (10 µM) | 0 | 0 | 0 | 0 | 0 | 0 | 0 | 0 | 0 | 0 |
| Cc1ccc(-c2ncn(-c3ccc(Nc4nccc(-c5cccc(N6CCOCC6)c5)n4)cc3)n2)cn1 (10 µM) | 0 | 0 | 0 | 0 | 0 | 0 | 0 | 0 | 0 | 0 |
| CCn1nc(C2CCN(C(=O)CCO)CC2)nc1-c1cnc(N)c(-c2nnc(C(C)(C)C)o2)n1 (10 µM) | 0 | 0 | 0 | 0 | 0 | 0 | 0 | 0 | 0 | 0 |
| O=C1NC(=O)C(c2cn(-c3ccccc3)nc2-c2ccc(F)cc2)N1 (stereo not given) (10 µM) | 0 | 0 | 0 | 0 | 1 | 0 | 0 | 0 | 0 | 0 |
| C[C@H]1[C@H](OC(=O)CCC(=O)O)O[C@@H]2O[C@@]3(C)CC[C@H]4[C@H](C)CC[C@@H]1[C@@]24OO3 [Artesunate] (2.5 µM) | 1 | 1 | 0 | 0 | 0 | 0 | 0 | 0 | 0 | 0 |
| COc1ccc(CCNc2ncc3c(=O)n(-c4cccc(F)c4)c(=O)[nH]c3n2)cc1OC (2 µM) | 0 | 0 | 0 | 0 | 0 | 0 | 0 | 0 | 0 | 0 |
| O=C(CCCCCn1cc(Nc2ncc(Cl)c(Nc3ccc(Cl)cc3)n2)cn1)NO (2.5 µM) | 0 | 0 | 0 | 0 | 0 | 0 | 0 | 0 | 0 | 0 |
| C[C@@H]1COCCN1c1cc(C2([S@](C)(=N)=O)CC2)nc(-c2cc[nH]c3nccc2-3)n1 [Ceralasertib] (2.5 µM) | 0 | 0 | 0 | 0 | 0 | 0 | 0 | 0 | 0 | 0 |
| CC1=C(C(=O)Nc2ccc3[nH]ncc3c2)C(c2ccc(F)cc2)NC(=O)N1 (stereo not given) (10 µM) | 0 | 0 | 0 | 0 | 0 | 0 | 0 | 0 | 0 | 0 |
| Nc1nc2cc(-c3ccc4ncc(C(=O)N5CCOCC5)n4c3)ccc2o1 [Serabelisib] (10 µM) | 0 | 0 | 0 | 0 | 0 | 0 | 0 | 0 | 0 | 0 |
| Oc1ccccc1C(=S)N1CCCC1 (10 µM) | 0 | 0 | 0 | 0 | 0 | 0 | 0 | 0 | 0 | 0 |
| CCCC(=O)Nc1nc2c(ncn2[C@@H]2O[C@@H]3COP(=O)(O)O[C@H]3[C@H]2OC(=O)CCC)c(=O)[nH]1 [Dibutyryl-cGMP (sodium)] (10 µM) | 0 | 0 | 0 | 0 | 0 | 0 | 0 | 0 | 0 | 0 |
| Cc1cnc(Nc2ccc(N3CCN(C)CC3)cc2)nc1Nc1cccc(S(=O)(=O)NC(C)(C)C)c1 (2.5 µM) | 0 | 0 | 0 | 0 | 0 | 1 | 0 | 0 | 0 | 0 |
| C=C(F)C(=O)N1CCN(c2nc(OC[C@@H]3CCCN3C)nc3c2CCN(c2cccc4cccc(Cl)c24)C3)C[C@@H]1CC#N (2.5 µM) | 0 | 0 | 0 | 0 | 0 | 0 | 0 | 0 | 0 | 0 |
| CCCCNC(=N)NC(=N)N [Buformin (hydrochloride)] (2.5 µM) | 0 | 0 | 0 | 0 | 0 | 0 | 0 | 0 | 0 | 0 |
| COc1c(O)cc2oc3cc(O)c(CC=C(C)C)c(O)c3c(=O)c2c1CCC(C)(C)O [Garcinone D] (2.5 µM) | 0 | 0 | 0 | 0 | 0 | 0 | 0 | 0 | 0 | 0 |
| COc1ccc(-n2c(C)c([N+](=O)[O-])c3ccc(O)cc32)cc1 (10 µM) | 0 | 0 | 0 | 0 | 0 | 0 | 0 | 0 | 0 | 0 |

2 compounds drawn at random from those above, as already listed:

| Compound | number of time points (FLT3) | number of time points (FYN) | number of time points (GSK3A) | number of time points (HER2) | number of time points (INSRR) | number of time points (IRAK3) | number of time points (JAK1) | number of time points (LCK) | number of time points (LIMK1) | number of time points (LIMK2) |
| --- | --- | --- | --- | --- | --- | --- | --- | --- | --- | --- |
| CSc1ccc(CN2CCCC(Nc3ccc4[nH]ncc4c3)C2)cc1 (stereo not given) [Rho-Kinase-IN-1] (10 µM) | 0 | 0 | 0 | 0 | 0 | 0 | 0 | 0 | 0 | 0 |
| CCCCNC(=N)NC(=N)N [Buformin (hydrochloride)] (2.5 µM) | 0 | 0 | 0 | 0 | 0 | 0 | 0 | 0 | 0 | 0 |
